Reference: patent publication US20240398896A1, “INFLAMMASOME INHIBITION” (National University of Singapore, priority 2021, published 2024)

B1: bat ASC2: ASC2 (PYRIN-only protein) of the bat Pteropus alecto, SEQ ID NO:11; expressed from vectors or as Dox-inducible transgene (protein)
chain: MGKKRDAILEALENLTADELKKFKLKLGAAPLRQGFRNIPRGALGPLDAVDLTDKLVAFYCEDYGAELTAVVLRDIGMQEEAERLQGVA
B2: hupa4 ASC2: human ASC2 with 4 key sites substituted simultaneously with the ones in bat ASC2, SEQ ID NO:6 (protein)
chain: MGTKREAILEVLENLTPEELKKFKMKLGTVPLREGFRRIPRGALGQLDIVDLTDKLVASYCEDYAAELVVAVLRDMGMLEEAARLQRAA

Experiments:
HEK293T cells = assay: ASC2-His protein expression on overexpression in HEK293T cells (immunoblot); conditions: compared to human ASC2
[1] = system: P. alecto kidney (PaKi) cells; assay: ASC2-His protein expression on overexpression in bat kidney (PaKi) cells (immunoblot); parameters: species or system Pteropus alecto; conditions: compared to human ASC2

| Molecule | ASC2 protein expression (anti-His signal normalized to β-actin) (HEK293T cells) | ASC2 protein expression (anti-His signal normalized to β-actin) [1] |
| --- | --- | --- |
| B1 | higher protein level | higher protein level |
| B2 | enhanced protein expression | enhanced protein expression |
